From PMC7228087
These are yes or no findings as the source states them, for the method shown. Binding seen in cells or lysates may run through a third protein. Some binding calls cover weakened binding; strength is not graded here. Sequences can lack the tags named with a protein.

Protein sequences, listed by entry. Tags and fused reporters are not part of them. Lines headed by an entry give the natural chain unless they say otherwise; changes in a name come on top.
UniProt P61829, whole entry: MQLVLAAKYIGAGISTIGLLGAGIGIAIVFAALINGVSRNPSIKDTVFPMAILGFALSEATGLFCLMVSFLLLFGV

Molecular target: T1, Cox6 with a tandem hemagglutinin plus protein C tag (S. cerevisiae) (UniProt P00427)
T1 sequence: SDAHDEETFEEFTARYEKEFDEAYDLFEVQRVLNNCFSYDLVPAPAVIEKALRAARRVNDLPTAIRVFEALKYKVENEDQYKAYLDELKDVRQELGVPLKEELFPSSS
Assay: co-IP; Cox6-HAC held on protein C antibody beads; 2% digitonin extracts of mitochondria labelled with 35S-methionine/cysteine; eluted with EDTA; SDS-PAGE and BN-PAGE, autoradiography; strains with Cox6-HAC without or with mss51, mss51 pet494 or cox5a null mutations, cells grown with or without 2 mg/ml chloramphenicol, pulse and chase

Substance | binding
Atp9 (from UniProt P61829 1-76) | binds
Cox1 (from UniProt P00401 1-534) | binds
